Reference: article PMC11267308
No constants are given. Whether binding was seen depends on the method and setting. Binding seen in cells or lysates may run through a third protein. Some results given as binding are weak or reduced against the parent protein; the word gives no strength.

Chains of the proteins cited; added tags and fusions are not shown.
UniProt P15311: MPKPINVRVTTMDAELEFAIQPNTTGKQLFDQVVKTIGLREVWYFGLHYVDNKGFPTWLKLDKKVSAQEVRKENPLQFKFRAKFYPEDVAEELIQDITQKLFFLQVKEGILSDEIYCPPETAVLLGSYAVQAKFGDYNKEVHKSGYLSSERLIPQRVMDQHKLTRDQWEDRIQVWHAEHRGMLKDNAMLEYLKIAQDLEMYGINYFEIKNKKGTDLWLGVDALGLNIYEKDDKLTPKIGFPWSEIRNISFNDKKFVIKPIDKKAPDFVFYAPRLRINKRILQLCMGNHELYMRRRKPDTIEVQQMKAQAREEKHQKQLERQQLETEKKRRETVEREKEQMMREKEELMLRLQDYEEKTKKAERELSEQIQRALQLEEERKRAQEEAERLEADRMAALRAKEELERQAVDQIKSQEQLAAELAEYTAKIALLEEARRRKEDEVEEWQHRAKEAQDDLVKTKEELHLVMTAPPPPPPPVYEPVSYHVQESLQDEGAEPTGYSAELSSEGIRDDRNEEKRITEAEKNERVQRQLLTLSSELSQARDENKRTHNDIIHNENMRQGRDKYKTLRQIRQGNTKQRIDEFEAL
UniProt Q99836: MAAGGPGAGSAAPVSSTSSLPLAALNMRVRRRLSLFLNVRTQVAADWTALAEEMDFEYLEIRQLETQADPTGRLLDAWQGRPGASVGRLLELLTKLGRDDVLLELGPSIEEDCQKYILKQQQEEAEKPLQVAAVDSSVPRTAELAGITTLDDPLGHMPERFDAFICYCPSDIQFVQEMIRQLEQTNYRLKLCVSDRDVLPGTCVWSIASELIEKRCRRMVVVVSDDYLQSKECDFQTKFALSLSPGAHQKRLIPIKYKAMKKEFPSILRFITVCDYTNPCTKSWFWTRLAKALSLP
UniProt P51617: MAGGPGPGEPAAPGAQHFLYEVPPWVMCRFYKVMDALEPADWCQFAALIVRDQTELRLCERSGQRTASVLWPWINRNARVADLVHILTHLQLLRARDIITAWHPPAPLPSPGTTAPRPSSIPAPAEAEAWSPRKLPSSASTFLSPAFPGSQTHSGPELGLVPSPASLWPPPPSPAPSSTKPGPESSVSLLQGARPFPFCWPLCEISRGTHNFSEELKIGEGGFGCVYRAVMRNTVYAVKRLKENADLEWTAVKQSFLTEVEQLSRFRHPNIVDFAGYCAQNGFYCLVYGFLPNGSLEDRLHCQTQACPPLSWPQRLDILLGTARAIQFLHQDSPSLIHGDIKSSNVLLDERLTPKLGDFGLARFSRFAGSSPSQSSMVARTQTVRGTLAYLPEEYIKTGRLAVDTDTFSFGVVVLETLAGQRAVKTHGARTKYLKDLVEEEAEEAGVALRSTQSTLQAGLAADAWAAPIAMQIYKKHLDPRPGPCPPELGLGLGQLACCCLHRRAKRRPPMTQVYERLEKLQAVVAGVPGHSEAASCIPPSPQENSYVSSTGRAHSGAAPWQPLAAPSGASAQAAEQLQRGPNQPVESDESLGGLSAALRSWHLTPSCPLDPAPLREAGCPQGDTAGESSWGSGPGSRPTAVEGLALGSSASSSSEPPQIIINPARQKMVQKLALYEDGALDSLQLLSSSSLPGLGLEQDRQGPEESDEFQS

Target: Ezrin (human (endogenous in HK-2)) (UniProt P15311)
Assay: co-IP; HK-2 cell lysate (IP lysis buffer with protease and phosphatase inhibitors); 2 µg antibody against the target protein overnight at 4 °C, Agarose A+G, washed thrice with PBS; cells in the presence or absence of LPS (10 µg/mL); IgG control

binding	Substance
binds	myeloid differentiation factor 88 (MyD88) (from UniProt Q99836 1-296)
binds	IL-1R-associated kinase 1 (IRAK-1) (from UniProt P51617 1-712)
